Results as given in article doi:10.1101/2025.09.05.674436 (bioRxiv, 2025).
No constants are given. Whether binding was seen depends on the method and setting.

Molecular target: full length ZNFX1 expressed in insect cells (ZNFX1FL) (human) (UniProt Q9P2E3)
Test: SDS-PAGE of LDS-resistant high molecular weight species

B1: full length ZNFX1 expressed in insect cells (ZNFX1FL) (enzyme)
chain: MEERRPHLDARPRNSHTNHRGPVDGELPPRARNQANNPPANALRGGASHPGRHPRANNHPAAYWQREERFRAMGRNPHQGRRNQEGHASDEARDQRHDQENDTRWRNGNQDCRNRRPPWSNDNFQQWRTPHQKPTEQPQQAKKLGYKFLESLLQKDPSEVVITLATSLGLKELLSHSSMKSNFLELICQVLRKACSSKMDRQSVLHVLGILKNSKFLKVCLPAYVVGMITEPIPDIRNQYPEHISNIISLLQDLVSVFPASSVQETSMLVSLLPTSLNALRASGVDIEEETEKNLEKVQTIIEHLQEKRREGTLRVDTYTLVQPEAEDHVESYRTMPIYPTYNEVHLDERPFLRPNIISGKYDSTAIYLDTHFRLLREDFVRPLREGILELLQSFEDQGLRKRKFDDIRIYFDTRIITPMCSSSGIVYKVQFDTKPLKFVRWQNSKRLLYGSLVCMSKDNFETFLFATVSNREQEDLCRGIVQLCFNEQSQQLLAEVQPSDSFLMVETTAYFEAYRHVLEGLQEVQEEDVPFQRNIVECNSHVKEPRYLLMGGRYDFTPLIENPSATGEFLRNVEGLRHPRINVLDPGQWPSKEALKLDDSQMEALQFALTRELAIIQGPPGTGKTYVGLKIVQALLTNESVWQISLQKFPILVVCYTNHALDQFLEGIYNCQKTSIVRVGGRSNSEILKQFTLRELRNKREFRRNLPMHLRRAYMSIMTQMKESEQELHEGAKTLECTMRGVLREQYLQKYISPQHWESLMNGPVQDSEWICFQHWKHSMMLEWLGLGVGSFTQSVSPAGPENTAQAEGDEEEEGEEESSLIEIAEEADLIQADRVIEEEEVVRPQRRKKEESGADQELAKMLLAMRLDHCGTGTAAGQEQATGEWQTQRNQKKKMKKRVKDELRKLNTMTAAEANEIEDVWQLDLSSRWQLYRLWLQLYQADTRRKILSYERQYRTSAERMAELRLQEDLHILKDAQVVGMTTTGAAKYRQILQKVEPRIVIVEEAAEVLEAHTIATLSKACQHLILIGDHQQLRPSANVYDLAKNFNLEVSLFERLVKVNIPFVRLNYQHRMCPEIARLLTPHIYQDLENHPSVLKYEKIKGVSSNLFFVEHNFPEQEIQEGKSHQNQHEAHFVVELCKYFLCQEYLPSQITILTTYTGQLFCLRKLMPAKTFAGVRVHVVDKYQGEENDIILLSLVRSNQEGKVGFLQISNRICVALSRAKKGMYCIGNMQMLAKVPLWSKIIHTLRENNQIGPMLRLCCQNHPETHTLVSKASDFQKVPEGGCSLPCEFRLGCGHVCTRACHPYDSSHKEFQCMKPCQKVICQEGHRCPLVCFQECQPCQVKVPKTIPRCGHEQMVPCSVPESDFCCQEPCSKSLRCGHRCSHPCGEDCVQLCSEMVTIKLKCGHSQPVKCGHVEGLLYGGLLVKCTTKCGTILDCGHPCPGSCHSCFEGRFHERCQQPCKRLLICSHKCQEPCIGECPPCQRTCQNRCVHSQCKKKCGELCSPCVEPCVWRCQHYQCTKLCSEPCNRPPCYVPCTKLLVCGHPCIGLCGEPCPKKCRICHMDEVTQIFFGFEDEPDARFVQLEDCSHIFEVQALDRYMNEQKDDEVAIRLKVCPICQVPIRKNLRYGTSIKQRLEEIEIIKEKIQGSAGEIATSQERLKALLERKSLLHQLLPEDFLMLKEKLAQKNLSVKDLGLVENYISFYDHLASLWDSLKKMHVLEEKRVRTRLEQVHEWLAKKRLSFTSQELSDLRSEIQRLTYLVNLLTRYKIAEKKVKDSIAVEVYSVQNILEKTCKFTQEDEQLVQEKMEALKATLPCSGLGISEEERVQIVSAIGYPRGHWFKCRNGHIYVIGDCGGAMERGTCPDCKEVIGGTNHTLERSNQLASEMDGAQHAAWSDTANNLMNFEEIQGMM
With B1 the binding was “no binding (condition: without E2∼Ub)”.
